For orientation: CC50 means the concentration that lowers cell viability or growth by half. Lower therefore signals greater toxicity to the cells. As usually defined, the EC50 is the concentration giving half of the maximal effect. Read a high EC50 as a less potent agent.

Consider one molecule from article PMC10081574, “Evaluation of Antiviral Activity of Gemcitabine Derivatives against Influenza Virus and Severe Acute Respiratory Syndrome Coronavirus 2” (ACS Infectious Diseases, 2023).

Bounds are passed on as bounds.

The nature of data set [1]: Cytotoxicity to mock-infected Calu-3 cells (MTT). Particulars: human.
For another data set, the system named is SARS-CoV-2. Put plainly: Anti-SARS-CoV-2 immunofluorescence assay (anti-S) in Calu-3 cells. The settings on record: Severe acute respiratory syndrome coronavirus 2, 48 h; Calu-3, MOI 0.05, 2 days. It counts as cell-based.

Consider `CCC(CC)COC(=O)[C@H](C)N[P@](=O)(OC[C@H]1O[C@@](C#N)(c2ccc3c(N)ncnn23)[C@H](O)[C@@H]1O)Oc1ccccc1` [Remdesivir, reference compound], for which the half-maximal cytotoxic concentration (CC50) at 2 days in data set [1] was > 100 µM. In addition, the EC50 with SARS-CoV-2 was determined as 780 nM.
